Reference: patent US20140194531A1, “HYDROXYTYROSOL BENEFITS MITOCHONDRIA” (DSM IP Assets B.V., priority 2008, published 2014)
At least one structure is not confirmed: it was looked up by name or label, or the drawing left a doubt.

Assays:
[1] = system: PGC-1α; test: PGC-1α protein level in adipocytes (Western blot); assay type: cell-based, murine
Experimental: Murine 3T3-L1 pre-adipocytes (American Type Culture Collection) were cultured in Dulbecco's Modified Eagle's Medium (DMEM) supplemented with 10% fetal bovine serum and allowed to reach confluence. Differentiation of pre-adipocytes was initiated with 1 μM insulin, 0.25 μM dexamethasone and 0.5 mM 3-isobutyl-1-methylxanthine in DMEM, supplemented with 10% fetal bovine serum. After 48 h, the culture medium was replaced with DMEM supplemented with 10% fetal bovine serum and 1 μM insulin. The culture medium was changed every other day with DMEM containing 10% fetal bovine serum. […] After treatment, cells were washed twice with ice-cold PBS, lysed in sample buffer (62.5 mM Tris-Cl pH 6.8, 2% SDS, 5 mM DTT) at room temperature and vortexed. Cell lysates were then boiled for 5 minutes and cleared by centrifugation (13,000 rpm, 10 minutes at 4° C.). Protein concentration was determined using the Bio-Rad DC protein assay. The soluble lysates (10 μg per lane) were subjected to 10% SDS-PAGE, proteins were then transferred to nitrocellulose membranes and blocked with 5% non-fat milk/TBST for 1 h at room temperature. […] Western blots were developed using ECL (Roche Manheim, Germany) and quantified by scanning densitometry.

[2] = system: mitochondrial complex II; test: Mitochondrial complex II protein expression in adipocytes (Western blot); assay type: cell-based, murine; details: 3T3-L1 adipocytes, 48 hrs, 0.1, 1.0 and 10.0 μM
[3] = system: mitochondrial complex III; test: Mitochondrial complex III protein expression in adipocytes (Western blot); assay type: cell-based, murine; details: 3T3-L1 adipocytes, 48 hrs, 0.1, 1.0 and 10.0 μM
[4] = system: mitochondrial complex V; test: Mitochondrial complex V protein expression in adipocytes (Western blot); assay type: cell-based, murine; details: 3T3-L1 adipocytes, 48 hrs, 0.1, 1.0 and 10.0 μM
[5] = system: mitochondrial D-loop; test: Measurement of mitochondrial DNA (D-loop/18SRNA quantitative PCR); assay type: cell-based, murine; details: 3T3-L1 adipocytes, 48 hrs, 1.0 μM
[6] = system: 3T3-L1 adipocytes; test: Oxygen consumption in adipocytes (BD Oxygen Biosensor); assay type: cell-based, murine; details: 1.0-10.0 μM
[7] = system: NADH-CoQ oxidoreductase (Complex I); test: Activity of mitochondrial complex I in adipocytes; assay type: cell-based, murine; details: 48 hrs, 1.0 μM, relative to control
[8] = system: succinate-CoQ oxidoreductase (complex II); test: Activity of mitochondrial complex II in adipocytes; assay type: cell-based, murine; details: 48 hrs, 0.1, 1.0 and 10.0 μM
[9] = system: CoQ-cytochrome c reductase (complex III); test: Activity of mitochondrial complex III in adipocytes; assay type: cell-based, murine; details: 48 hrs, 0.1 μM and 10 μM
[10] = system: mitochondrial complex IV; test: Activity of mitochondrial complex IV in adipocytes; assay type: cell-based, murine; details: 48 hrs, 0.1 μM and 10 μM
[11] = system: mitochondrial complex V; test: Activity of mitochondrial complex V in adipocytes; assay type: cell-based, murine; details: 48 hrs, 0.1 μM and 10 μM
[12] = system: Cpt1a mRNA; test: Expression of Cpt1a mRNA in adipocytes (RT-PCR); assay type: cell-based, murine; details: 3T3-L1 adipocytes
[13] = system: mice (C57BL/6NCrl); test: Maximal running performance on a treadmill (endurance); assay type: in vivo; details: olive extract containing 50% hydroxytyrosol, 50, 150 or 300 mg/kg body weight per day orally, 3 weeks
Description: The purpose of the study was to determine the effect of hydroxytyrosol on maximal running performance on a treadmill.
In short, forty mice (C57BL/6NCrl; 8 wks old) were purchased from Charles River (Sulzfeld, Germany) and housed individually with free access to water and feed, with an alternating 12-hour light-dark cycle. The animals were fed a standard rodent diet (Ssniff R/M-H, Ext. n° V1536, Ssniff Ltd., Soest, Germany). After 2 weeks of adaptation to the diet the mice were randomized according to body weight into four experimental groups of 10 animals. The four groups were treated orally every morning for 3 weeks with either water (control group) or with an olive extract diluted to 0.2 ml with water and containing 50% hydroxytyrosol at doses of 50, 150, or 300 mg/kg body weight per day. There was no difference in feed consumption over the whole experiment. After 3 weeks of treatment the maximal running distance on a treadmill was measured. Statistical significance of the mean differences between dietary groups was tested by one-way analysis of variance (ANOVA). If significant differences were found, the Dunnett's test for multiple comparison was used to compare each group to the control group. P values less than 0.05 were considered significant.

OCCc1ccc(O)c(O)c1 [hydroxytyrosol, 3,4-dihydroxyphenylethanol]
PGC1α protein level ([1]; 1.0-10 μM): increases
effect on PGC-1α protein level ([1]; 3T3-L1 adipocytes, 0.1 to 10.0 μM): bell-shape effect on increasing PGC-1α
Complex II protein expression [2]: significantly increased
Complex III protein expression [3]: significantly increased
Complex V protein expression [4]: significantly increased
ratio of mt D-loop/18SRNA [5]: significantly increased
basal rate of oxygen consumption [6]: significantly increased
activity of mitochondrial complex I [7]: significant increase
activity of mitochondrial complex II [8]: significantly increased
activity of mitochondrial complex III [9]: significant increase
activity of mitochondrial complex IV [10]: significant increase
activity of mitochondrial complex V [11]: significant increase
Cpt1 mRNA expression ([12]; 48 hrs, 1.0 μmol/l): significant increase
Cpt1 mRNA expression, dose dependence ([12]; 48 hrs, 0.1, 1.0, 10 and 50 μmol/l): dose-dependent increase
running distance to exhaustion [13]: significantly increased
